The target in test [1] is human cyclin T1 1-264 (human) (UniProt O60563). The test is described as follows: crystal structure; Tat_(1-57):AFF4_(32-67):P-TEFb combined with TAR21 RNA (nucleotides 21-41) at 1:1.3; sitting drops at 18°C; 5.9 Å; molecular replacement with PDB 4OGR; both purified.
Test [2] deals with Tat:P-TEFb complex (HIV-1 Tat 1-57, human CDK9 1-330, human cyclin T1 1-264) (HIV-1 | human) (UniProt P04608). The test is described as follows: SEC; Tat-P-TEFb and AFF4 combined at 1:1.4 (mol/mol), analytical Superdex S200, 25 mM Na-HEPES pH 7.4, 0.2 M NaCl, 1 mM DTT; both purified.
For test [3] the target is unchanged. Briefly: crystal structure; Tat_(1-57):AFF4_(32-67):P-TEFb combined with TAR21 RNA (nucleotides 21-41) at 1:1.3; sitting drops at 18°C; 5.9 Å; molecular replacement with PDB 4OGR; both purified.
Another test deals with HIV-1 Tat 1-57 (HIV-1) (UniProt P04608). The test is described as above.

Sequences of proteins named here, by UniProt entry; tags and fusion partners are left off. Residues count along the entry.
UniProt O60563, residues 1-264: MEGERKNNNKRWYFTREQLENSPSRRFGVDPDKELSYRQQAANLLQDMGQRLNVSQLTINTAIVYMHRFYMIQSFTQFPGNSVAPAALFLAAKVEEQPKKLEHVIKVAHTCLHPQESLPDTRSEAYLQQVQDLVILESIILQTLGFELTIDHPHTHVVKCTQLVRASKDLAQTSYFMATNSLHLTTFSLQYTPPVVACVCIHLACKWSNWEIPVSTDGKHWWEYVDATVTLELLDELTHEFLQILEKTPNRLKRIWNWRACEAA
UniProt P04608, residues 1-57: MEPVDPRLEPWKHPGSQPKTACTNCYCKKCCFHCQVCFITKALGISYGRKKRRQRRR

Results are given in words; binding and its absence hold for the method and conditions named. Some results given as binding are weak or reduced against the parent protein; the word gives no strength.

With “HIV-1 Tat 1-57 (from UniProt P04608 1-57) (domain or fragment)”, in test [1], the binding result is reported as “binds”.

B1: AFF4 fragment 2-73 (domain or fragment, UniProt Q9UHB7 2-73)
chain: NREDRNVLRMKERERRNQEIQQGEDAFPPSSPLFAEPYKVTSKEDKLSSRIQSMLGNYDEMKDFIGDRSIPK
In the case of B1, the binding result in test [2] is given as “binds”.

With SPLFAEPYKVTSKEDKLSSRIQSMLGNYDEMKDFIG (peptide, UniProt Q9UHB7 32-67, acetylated and amidated termini) [AFF4 peptide 32-67], the binding entry (in test [3]; in the test with HIV-1 Tat 1-57 (HIV-1)) was “binds” throughout.

Values taken from publication PMC5072841, “Insights into HIV-1 proviral transcription from integrative structure and dynamics of the Tat:AFF4:P-TEFb:TAR complex” (eLife, 2016).
